# In PMC12040169 (PLOS Biology, 2025):
# The other results are listed elsewhere or left out.
# System: T1, CTL2-GFP (C. trachomatis L2/434/Bu, GFP-expressing)
# T1 construct: L2/434/Bu, GFP-expressing
# Parameters: species or system HeLa; Intracellular C. trachomatis growth in HeLa cells, bulk GFP fluorescence relative to DMSO
# Details: bulk GFP, single well; 28.5 h, 10 µM; inhibitor
row,Compound,% of control remaining [%]
1,COCCc1noc(CC2CCN(c3nc(C)cc(C#N)n3)CC2)n1 [CBK304179],138.764
2,Cc1ccc(S(=O)(=O)N2CCN(c3ccc([N+](=O)[O-])c(N4CCN(C)CC4)c3)CC2)cc1 [CBK264795],111.997
3,Cc1nc(NS(=O)(=O)c2c(C)noc2C)sc1C(=O)O [CBK045562],107.991
4,Nc1nc(CSc2nnc(-c3ccncc3)o2)nc(Nc2ccc(F)cc2)n1 [CBK266221],76.9011
5,COCCCn1c(=O)[nH]c2ncc(-c3cccc(/C=C/C(=O)O)c3)nc21 [CBK065107],161.732
6,COc1ccc(N2C(=O)C3C(CC(C)C)NC4(C(=O)N(CC(=O)Nc5ccc(C)cc5)c5ccccc54)C3C2=O)cc1 (stereo not shown) [CBK266034],151.588
7,O=C(c1ccccc1F)N1CCCC1c1n[nH]cc1-c1ccncc1 (stereo not shown) [CBK283428],147.498
8,CCN(CC)CCNC(=O)c1cc(O)nc2ccccc12 [CBK269261],90.7875
9,O=C(Nc1ccc(-c2cccc(F)c2)cc1)c1ccccc1Cn1cncn1 [CBK285565],112.816
10,Cc1ccc(CSCCNC(=O)/C=C/c2ccccc2)cc1 [CBK263985],127.4
11,CC(C)N(Cc1nc(-c2ccccc2)no1)C(=O)Nc1cccc(Cl)c1 [CBK269871],121.731
12,CCOC(=O)c1cnc2c(C)cc(Cl)cc2c1NCCN(C)C [CBK264800],100
13,CCc1ncc2c(n1)CN(Cc1cc(=O)n3cccc(C)c3n1)CC2 [CBK305914],122.762
14,O=C(C1CC(O)CN1)N1CC2(CCCC2)c2c(F)cccc21 (stereo not shown) [CBK304269C],104.816
15,OCc1ccccc1-c1cn2ccnc2c(Nc2ccc(N3CCOCC3)cc2)n1 [CBK037956],155.332
16,Cn1cc(/C=C(\C(=O)O)C(C(=O)O)=C2C3CC4CC(C3)CC2C4)c2ccccc21 [CBK263749],100
17,O=C(C1=Cc2ccccc2OC1)N1CCn2cc(C(F)(F)F)nc2C1 [CBK283913],87.2641
18,CCOC(=O)C1CCN(CC(=O)Nc2ccc(S(N)(=O)=O)cc2)CC1 [CBK266118],150.421
19,O=[N+]([O-])c1ccc(C2CNC(c3ccccc3O)O2)cc1 (stereo not shown) [CBK262298],100
20,CC(Oc1nccnc1OCc1ccc(Cl)c(Cl)c1)c1ccncc1 (stereo not shown) [CBK161609],98.7632
21,C=CCn1c(SCC(=O)N2c3ccccc3C(C)(c3ccccc3)CC2(C)C)nnc1-c1ccncc1 (stereo not shown) [CBK059171],84.406
22,COc1ccc(OC)c(S(=O)(=O)N2CCC(C(=O)O)CC2)c1 [CBK266835],174.584
23,COc1ccc(Cl)cc1CN(C)C(=O)c1cnn2cc(CCO)cnc12 [CBK307236],98.9608
24,COC(=O)c1c(NC(=O)Cn2nc([N+](=O)[O-])c(Cl)c2C)sc2c1CCCC2 [CBK263047],118.717
25,Cn1cc(C(=O)Nc2cccc(S(=O)(=O)N3CCCCCC3)c2)cn1 [CBK305715],96.4323
26,O=C(NCC(CN1CCOCC1)([N+](=O)[O-])[N+](=O)[O-])c1ccccc1 [CBK261339],100.713
27,Cc1ccc(OCC(=O)Nc2cccc3nsnc23)c(C)c1 [CBK263816],100

row,Compound,% of control remaining [%]
1,Cc1ccc(S(=O)(=O)Nc2nnc(C3CCCCC3)s2)cc1 [CBK022722],119.307
2,CC(=O)Nc1ccc(NC(=O)CSCc2ccc(Cl)cc2Cl)cc1 [CBK131696],101.556
3,Cc1cc(C(=O)NCCCn2ccnc2)no1 [CBK268145],106.809
4,COc1nc(SC)nc2[nH]ccc12 [CBK085861],101.409
5,CC(C)Oc1ccc(C2CC(=O)N(c3cccc(C(=O)O)c3)C2=O)cc1 (stereo not shown) [CBK291181],164.987
6,CC1(C)CC(=O)C=C(SCC(=O)C(C)(C)C)S1 [CBK005523],97.1723
7,O=C(COc1ccccc1C1CC(=O)Nc2ccc3ccccc3c21)Nc1ccccc1 (stereo not shown) [CBK265704],115.69
8,CCCn1cnc2sc(C(=O)O)c(C)c2c1=O [CBK287199],127.812
9,CC1CCC(N(C)Cc2nc3sc4c(c3c(=O)[nH]2)CCC4)CC1 (stereo not shown) [CBK305876],139.472
10,Cc1ncccc1C(=O)N1CCC(F)CC1 [CBK200398],119.177
11,CC1(OCCCO)SC(NC2CCCCCC2)=NC1=O (stereo not shown) [CBK107927],111.648
12,CC(C)c1ccc(C(=O)N2CCC(n3cnc4cccnc43)CC2)cc1 [CBK282370],140.314
13,Cc1cc2nc(-c3cc(NC(=O)c4ccc(C)c([N+](=O)[O-])c4)ccc3O)oc2cc1C [CBK262779],132.678
14,COc1cc(CNC(=O)NC(=O)C2CCN(CCc3c(-c4ccccc4)[nH]c4ccccc34)CC2)cc(OC)c1OC [CBK034859],149.341
15,CC(NC(=O)c1ncoc1-c1ccc(F)cc1)c1ccncc1 (stereo not shown) [CBK282319],111.905
16,Cc1cccc(-c2n[nH]c(=S)n2CC(=O)NCCCS(=O)(=O)Cc2ccccc2)c1 [CBK297942],116.557
17,CCOC(=O)c1[nH]c2ccccc2c1NC(=O)c1ccoc1 [CBK160169],99.3587
18,Cn1nccc1NS(=O)(=O)c1ccc(-c2cc(C(F)(F)F)on2)s1 [CBK062087],96.6453
19,Cn1c(C(N)=O)cc(=O)n1-c1ccc([N+](=O)[O-])cc1 [CBK015873],95.3162
20,Cc1csc(C(=O)N2CCC(c3cc(O)cc(C)n3)CC2)c1 [CBK283466],132.854
21,CC(C)(C)c1csc(Nc2ncc(C(F)(F)F)cc2Cl)n1 [CBK021513],154.481
22,CCCOc1ccc(N2C(=O)CC(N3CCC(C(=O)O)CC3)C2=O)cc1 (stereo not shown) [CBK287235],111.536
23,CCn1cc(C(=O)N2CCC(Oc3ccccc3C)(C(=O)O)CC2)cn1 [CBK306699],103.991
24,CC(=O)Nc1nc2ccc(S(C)(=O)=O)cc2s1 [CBK287336],93.4821
25,CC(NC(=O)/C(=C\c1ccccc1)NC(=O)c1ccc(Br)o1)C(=O)O (stereo not shown) [CBK264934],91.5181
26,O=C(O)Cc1ccc(NC(=O)C2Cc3ccccc3C(=O)O2)cc1 (stereo not shown) [CBK269406],146.289
27,COc1ccccc1CNS(=O)(=O)c1ccccc1[N+](=O)[O-] [CBK261699],106.827

row,Compound,% of control remaining [%]
1,Cc1cc(Cl)c(S(=O)(=O)Nc2cccnc2)cc1OCC(=O)NC1CCCCC1 [CBK266773],152.401
2,COc1ccccc1-c1cnc2[nH]c(=O)n(CC(C)(C)CO)c2n1 [CBK064690],135.326
3,CC(C)(C)OC(=O)NCc1ccc(CNCc2cc(F)cc(F)c2)cc1 [CBK056707],119.726
4,CC(C)(C(=O)N1CCC(C(=O)NCCc2c[nH]c3ccccc23)C1)c1ccc(F)cc1 (stereo not shown) [CBK286034],119.672
5,CC(C)NC(=O)N1Cc2nc[nH]c2C[C@H]1c1nc(-c2ccc(F)c(Cl)c2)no1 [CBK288999],123.328
6,Cc1ccc(S(=O)(=O)N2CCN(Cc3cc(Br)ccc3O)CC2)cc1 [CBK264242],100
7,OC1(c2ccc(F)cc2)CC2CCC(C1)N2Cc1ccccn1 (stereo not shown) [CBK283490],100.276
8,O=C(NCC1CCCN1)c1ccccc1Nc1cccc(C(F)(F)F)c1 (stereo not shown) [CBK115916C],68.7658
9,Clc1ccc(-c2cc(CN3CCCCC3)no2)cc1Cl [CBK018435],138.654
10,O=S(=O)(Nc1ccc2nsnc2c1)c1ccc(F)cc1 [CBK051010],124.121
11,COC(=O)c1cccc2c1[nH]c1ccccc12 [CBK001709],113.789
12,Cc1cccc(CC(=O)N2CCCC2c2ccnc3cc(C)nn23)c1 (stereo not shown) [CBK283472],105.094
13,CC(C(=O)N1CCC(C(=O)c2nccs2)CC1)c1ccccc1 (stereo not shown) [CBK284163],119.327
14,CCC(NC(=O)c1csc2c1CCCC2)c1ccccc1 (stereo not shown) [CBK059006],97.9312
15,CC1=C[C@@H](CNS(=O)(=O)c2ccccc2)[C@H](C(C)C)C[C@H]1CC(=O)N1CCOCC1 [CBK289049],112.056
16,CCOC(=O)Cn1nc(CC)c(Cc2c(Cl)cccc2Cl)c1C [CBK113222],101.477
17,COc1ccc(NC(=O)c2cnc(-c3ccc(Cl)cc3)c(-c3ccc(C(C)=O)s3)c2)cn1 [CBK036643],160.145
18,C=C1C2(C(=O)NCCn3nc(C)c(Cl)c3C)CCC(C2)C1(C)C (stereo not shown) [CBK281661],127.068
19,COc1ccc(C(NC(=O)C2CCN(C(=O)NC(C)(C)C)CC2)c2ccccn2)cc1 (stereo not shown) [CBK060298],88.6201
20,O=C(c1ccccc1)N1CCCC1c1n[nH]cc1-c1ccncc1 (stereo not shown) [CBK283433],127.155
21,COc1cc(C2CN=NC23Cc2ccccc2C3=O)cc(OC)c1OC (stereo not shown) [CBK019341],113.146
22,Cc1ncccc1C(=O)NC(Cc1cccs1)c1nccs1 (stereo not shown) [CBK285153],96.0487
23,COCCCn1c(=O)[nH]c2ncc(-c3ccco3)nc21 [CBK064449],105.095
24,O=C(Nc1nc2ccc(Br)cc2s1)C1CC1 [CBK026046],98.085
25,O=C(c1cccc(S(=O)(=O)Nc2ccccn2)c1)N1CCCc2ccccc21 [CBK269645],142.822

# Reprinted at random: 3 entries already listed, in no set order.
row,Compound,% of control remaining [%]
9,Clc1ccc(-c2cc(CN3CCCCC3)no2)cc1Cl [CBK018435],138.654
2,COc1ccccc1-c1cnc2[nH]c(=O)n(CC(C)(C)CO)c2n1 [CBK064690],135.326
17,COc1ccc(NC(=O)c2cnc(-c3ccc(Cl)cc3)c(-c3ccc(C(C)=O)s3)c2)cn1 [CBK036643],160.145
